The values that follow come from PubChem BioAssay AID2685 (National Center for Advancing Translational Sciences (NCATS), 2010).

This is one part of the list. Shown are side measurements of this screen, not its main read-out; they come without a call. The list favours compounds with an active or inconclusive main result. The note in brackets gives the kind of curve behind each potency; many fits are weak.

This assay is described as follows: qHTS Assay for Lipid Storage Modulators in Drosophila S3 Cells.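 As to cell number change: cells counted by Cell Tracker Red CMTPX staining in the red channel.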 Conditions: BODIPY lipid droplet fluorescence, 18-24 h; for cell number change: measured here: cell count max response, cells fed with added oleic acid. Summed up: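 Drosophila S3 cells loaded with oleic acid (400 uM, as added) and compounds at several concentrations; lipid droplets imaged by 488-nm laser-scanning cytometry, 500–530 nm intensity and object ratio to cell channel. Percent activity normalized to 20 uM Triacsin C.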
In general terms: Quantitative high-throughput screening tests each substance at several concentrations.

[1] abbreviates: measured here: lipid fluorescence (Fed channel) AC50, cells fed with added oleic acid.
The mark [2] stands for this setting: measured here: cell number channel AC50, cells fed with added oleic acid.

For the compound `O=C(COC(=O)c1ccc(Cl)c(S(=O)(=O)NCc2ccccc2)c1)NC1CC1`, the cell number change is -2.51%. The AC50 (as a rule, the midpoint of the concentration-response curve, whichever way the signal moves) under setting [1] was 29.1 µM [rising, single point].
Regarding `Cc1n[nH]c(C)c1CCOc1ccc(C(C)C)cc1`, the cell number change is -18.6%. The AC50 under setting [2] is 0.058 µM [falling, full curve, poor fit]. In addition, the AC50 under setting [1] is 0.103 µM [falling, full curve, poor fit].
With `COc1ccc(-n2nnc3c(SCC(=O)NCc4ccco4)ncnc32)cc1`, the cell number change was -32.1%. The concentration at half-maximal activity (AC50) under setting [2] was 23.1 µM [falling, single point].
For `CC(C)N(C(=O)CN1C(=O)NC(c2ccccc2)(c2ccccc2)C1=O)C(C)C`, the cell number change is 11.2%.
Turning to `COc1cc(/C=C/C(=O)OCC(=O)Nc2ccc(NC(C)=O)cc2)cc(S(=O)(=O)N2CCc3ccccc32)c1OC`, the cell number change worked out at 59.3%. Under setting [2], the AC50 was 7.31 µM [rising, partial curve, poor fit]. The AC50 under setting [1] is 14.6 µM [rising, partial curve].
`COC(=O)CSc1nnc(C)c(=O)[nH]1`: the cell number change was -15.4%.
Take `COc1ccc(N2C(=O)CC(N3CCCC4CCCCC43)C2=O)cc1` (centres undefined): the cell number change was -21.6%. Also, the AC50 under setting [1] is 0.0164 µM [falling, full curve, poor fit].
As for `NC1=NC(=O)/C(=C\c2ccc(O)c([N+](=O)[O-])c2)S1`, the cell number change stood at 15.7%. Besides, the half-maximal activity concentration (AC50) under setting [1] was 1.64 µM [rising, full curve].
Turning to `COC(=O)c1ccc(N2CCOCC2)c(NC(=O)c2ccc3c(c2)OCCO3)c1`, the cell number change turned out to be 10.8%. The AC50 under setting [1] is 0.0184 µM [rising, full curve, poor fit].
On to `CNc1ccc(Br)cc(C(=O)/C=C/c2ccc3c(c2)OCO3)c1=O`, for which the cell number change was -0.377%. The AC50 under setting [1] was 18.4 µM [falling, single point].
Consider `Cn1c(-c2ccc(CN3CCCCC3)o2)nc2ccccc21`, for which the cell number change is 3.22%.
On to `O=c1c2ccccc2nc2ccc(NCc3ccco3)nn12`, for which the cell number change was -34.3%. Moreover, the AC50 under setting [2] was 8.2 µM [falling, partial curve, poor fit]. In addition, the AC50 under setting [1] is 8.2 µM [falling, partial curve, poor fit].
Consider `CCOc1ccc(NS(=O)(=O)c2ccc(NC(=O)C3CC3)cc2)cc1`, for which the cell number change amounted to 24.9%. The concentration at half-maximal activity (AC50) under setting [1] was 6.51 µM [rising, single point].
Regarding `O=C1OCC(c2ccccc2)=C1c1ccccc1`, the AC50 under setting [1] was 2.91 µM [falling, single point].
As for `COc1cc(/C=C(\C#N)C(=O)N2CCOCC2)cc(Br)c1O`, the cell number change was -21%. Besides, the AC50 under setting [2] was 1.84 µM [rising, partial curve]. Further, the AC50 under setting [1] was 32.6 µM [falling, single point].
Take `COCCN(C(=O)COC(=O)C1CC1C)c1c(N)n(Cc2ccccc2)c(=O)[nH]c1=O` (centres undefined): the cell number change is -19.3%. Moreover, the AC50 under setting [2] is 0.82 µM [falling, full curve].
Consider `Cc1cccc(N(C(=O)CNC(=O)c2ccco2)C(C(=O)NC2CCCC2)c2cccnc2)c1C` (centres undefined), for which the cell number change is -6.41%. For the same compound, under setting [1], the AC50 is 0.116 µM [rising, single point].
Take `CCC(C)C(N=C1NS(=O)(=O)c2ccccc21)C(=O)N1CCC(C)CC1` (centres undefined): the AC50 under setting [2] was 7.31 µM [falling, partial curve, poor fit].
In the case of `O=C(NC(=S)Nc1ccc(Cl)c(C(=O)O)c1)c1cncc(Br)c1`, the cell number change is 12.5%. For the same compound, the AC50 under setting [2] was 0.259 µM [rising, full curve, poor fit]. For the same compound, the AC50 under setting [1] is 6.51 µM [falling, single point].
`CC1(C)CC2C1CCC1(O)CC2(C)CCC1N(O)c1ccc(C(=O)NCCO)cn1` (centres undefined): the cell number change was -13.2%. Moreover, the AC50 under setting [1] was 6.51 µM [rising, single point].
Take `COc1ccc(/C=C2\OC(=S)N(C)C2=O)cc1`: the cell number change was -26%. The AC50 under setting [1] was 29.1 µM [falling, single point].
With `c1ccc(CSc2nnc(-c3c[nH]c4ccccc34)o2)cc1`, the cell number change is -111%. Further, the AC50 under setting [2] was 16.4 µM [falling, partial curve]. Also, the AC50 under setting [1] is 18.4 µM [falling, single point].
For the compound `Cn1c(=O)c2cc(S(=O)(=O)NCCC(=O)NCCC3=CCCCC3)ccc2n(C)c1=O`, the cell number change was -32.3%.
Take `COc1cccc(NC(=O)CSc2nc3ccccc3c(=O)n2CCCC(=O)N2CCCC2)c1`: the cell number change was found to be 19.1%. Further, the AC50 under setting [1] is 1.64 µM [rising, partial curve, poor fit].
In the case of `O=C1C=CC(O)(c2cc(=O)c3c(O)cc(O)cc3o2)C=C1`, the cell number change is -85.7%. In addition, the AC50 under setting [2] was 14.6 µM [falling, partial curve]. Also, the half-maximal activity concentration (AC50) under setting [1] is 7.31 µM [falling, partial curve].
On to `O=C(CSc1nnnn1Cc1ccccc1)NCCc1ccccc1`, for which the cell number change came out at 113%. For the same compound, the AC50 under setting [2] is 29.1 µM [rising, single point]. Under setting [1], the AC50 is 29.1 µM [rising, single point].
With `CC(=NC(C)C)C1=C(O)CCC1=O`, the cell number change is -55.9%. The AC50 under setting [2] was 5.17 µM [falling, full curve, poor fit]. The half-maximal activity concentration (AC50) under setting [1] is 18.4 µM [falling, single point].
Turning to `CCc1c(C)n([O-])c2c([n+]1=O)CCC2`, the cell number change is -138%.
As for `O=C(Nc1ccc(-c2csc(Nc3cccc(C(F)(F)F)c3)n2)cc1)c1ccccc1`, the cell number change was -53.6%. Moreover, the AC50 under setting [2] was 29.1 µM [falling, single point]. Further, under setting [1], the AC50 is 29.1 µM [falling, single point].
Turning to `Cc1nn(CC(=O)NCc2ccc(Cl)cc2)c(C)c1[N+](=O)[O-]`, the cell number change came out at 22.4%. Also, the AC50 under setting [1] was 14.6 µM [falling, single point].
On to `Cc1cc(C(=O)N/N=C/c2ccc(C)s2)n[nH]1`, for which the cell number change was -4.76%.
With `O=C(N/N=C/c1ccccn1)c1cc(-c2ccc(Br)cc2)nc2ccccc12`, the cell number change is -40.6%. Further, the AC50 under setting [2] is 32.6 µM [falling, single point]. Moreover, the AC50 under setting [1] was 29.1 µM [falling, partial curve, poor fit].
For the compound `CCC1CCCCN1Cc1ccc(CNC(=O)CCc2nnc3ccc(N4CCCCC4)nn23)o1` (centres undefined), the cell number change was -2.29%. Moreover, the AC50 under setting [1] was 29.1 µM [falling, single point].
Consider `COCCCNC(=O)CN1C(=O)CSc2ncccc21`, for which the cell number change was -14.1%. Besides, the AC50 under setting [1] is 29.1 µM [falling, single point].
Turning to `COc1ccc(-n2c(SCc3ccc([N+](=O)[O-])cc3)nnc2-c2ccccc2)cc1`, the cell number change was found to be 10.6%. The AC50 under setting [1] was 23.1 µM [falling, partial curve].
Turning to `CCSCc1nnc(SCC(=O)Nc2cc(F)ccc2C)n1C`, the cell number change stood at 3.82%. Moreover, under setting [1], the AC50 was 29.1 µM [falling, partial curve, poor fit].
On to `CCOc1cc(NC(=S)NCCCOC)c(OCC)cc1NC(=O)c1ccco1`, for which the cell number change worked out at 2.89%. Further, under setting [1], the AC50 is 0.13 µM [rising, full curve, poor fit].
As to `CCOC(=O)Cc1csc(SCC(=O)Nc2ccc3[nH]c(=O)[nH]c3c2)n1`, the cell number change came to 9.09%. Further, the AC50 under setting [1] is 29.1 µM [falling, single point].
In the case of `Cc1cc(C)cc(OCC(=O)Nc2cccc(C(=O)O)c2)c1`, the cell number change was -48.2%. Moreover, the half-maximal activity concentration (AC50) under setting [2] is 29.1 µM [falling, single point]. Further, the AC50 under setting [1] is 20.6 µM [falling, partial curve].
For `CCc1cc2c(=O)c(-c3nc4ccccc4[nH]3)coc2c(CN2CCCCC2)c1O`, the cell number change worked out at 38.9%. Further, the AC50 under setting [2] was 29.1 µM [rising, single point]. Under setting [1], the AC50 is 29.1 µM [rising, partial curve, poor fit].
`O=[N+]([O-])c1cc(-c2ccc(C(=S)N3CCOCC3)o2)ccc1Cl`: the cell number change was -51.7%. Besides, under setting [2], the AC50 was 29.1 µM [falling, single point]. Further, the AC50 under setting [1] was 25.9 µM [falling, partial curve].
With `COc1cc(C2CC(=O)c3c([nH]c(C(=O)OCCOC(C)C)c3C)C2)cc(OC)c1OC` (centres undefined), the cell number change is -24.5%. Also, the AC50 under setting [1] is 29.1 µM [falling, partial curve].
Take `N#Cc1ccccc1NC(=O)COC(=O)c1ccc2c(c1)OCO2`: the cell number change amounted to 5.73%. In addition, under setting [1], the AC50 is 4.61 µM [rising, full curve, poor fit].
Consider `O=C(CC(=O)NCc1ccccc1)NCc1ccccc1`, for which the cell number change was 5.98%.
For `CN(CC(=O)Nc1ccc(Cl)c(Cl)c1)C(=O)C12CC3CC(CC(C3)C1)C2`, the cell number change is -10.4%. The AC50 under setting [1] is 4.11 µM [falling, partial curve, poor fit].
Turning to `COc1ccc(CC(=O)Nc2ccc3c(c2)CCC3)cc1OC`, the cell number change was determined as 1.35%. Further, under setting [1], the AC50 was 2.59 µM [rising, partial curve].
In the case of `COc1ccc(C(C(=O)NC2CCCCC2)N(C(=O)CCl)c2cccc(Cl)c2)cc1` (centres undefined), the cell number change is -37.5%. For the same compound, under setting [2], the AC50 was 9.2 µM [falling, partial curve, poor fit]. In addition, the AC50 under setting [1] was 4.61 µM [rising, single point].
`Cc1cccc(C(CC(=O)NCc2ccco2)c2ccccc2)c1O` (centres undefined): the cell number change was found to be 30.6%.
Regarding `O=C(Nc1cccc(O)c1)c1cccc(C(=O)Nc2cccc(O)c2)c1`, the cell number change was -33.2%. Moreover, the concentration at half-maximal activity (AC50) under setting [2] was 9.2 µM [falling, single point]. Moreover, under setting [1], the AC50 was 29.1 µM [falling, single point].
For `CC(=O)/C(C#N)=C1\NC(=O)C(Cc2ccc(F)cc2)S1` (centres undefined), the cell number change is -3.97%.
Regarding `Clc1ccc(-n2c(SC/C=C/c3ccccc3)nnc2-c2cccnc2)cc1`, the cell number change turned out to be 3.05%. For the same compound, the AC50 under setting [2] was 1.03 µM [rising, partial curve]. Besides, the AC50 under setting [1] is 0.517 µM [rising, single point].
Take `N#Cc1c(-c2ccc(F)cc2)noc1N`: the cell number change was 78.6%. In addition, the AC50 under setting [2] is 18.4 µM [rising, partial curve]. Moreover, the AC50 under setting [1] is 4.11 µM [rising, single point].
As to `COCc1nnc(NC(=O)c2ccc(Cl)cc2[N+](=O)[O-])s1`, the cell number change was -16.7%. Also, the AC50 under setting [2] is 0.092 µM [falling, partial curve, poor fit].
`C=CCn1c(=O)c(C(=O)Nc2ncccc2O)c(O)c2ccccc21`: the cell number change is -1.4%.
The same measure, in the same setting: the value for `Nn1c(SCC(=O)Nc2ccccc2Br)nnc1-c1ccco1` was 26.6%.
As to `O=C(NC(=S)Nc1ccccc1[N+](=O)[O-])c1ccccc1`, the cell number change was found to be 7.04%. Moreover, the AC50 under setting [1] is 2.06 µM [rising, partial curve].
`O=S(=O)(c1cccc2nonc12)N1CCN(c2ccc(F)cc2)CC1`: the cell number change was -0.591%. For the same compound, the AC50 under setting [1] was 0.517 µM [falling, partial curve, poor fit].
